The test addresses cPXR (Cyprinus carpio, UniProt A0A1P8P0E9). The test can be described thus: carp PXR (cPXR) luciferase transactivation reporter assay, pGL4.24-6xPXRE reporter, COS-7 cells. As to the method: For this, cDNA was reverse transcribed from 1 μg of carp liver total RNA as described above and amplified using the Advantage 2 DNA polymerase mix (Clontech) according to the manufacturer's instructions. The resulting PCR product was purified and sequenced to confirm the full sequence length and sub-cloned into pGEM-T Easy vector (Promega) following the manufacturer's recommendations. Plasmid DNA was isolated using the Wizard Plus SV minipreps DNA Purification system (Promega) according to manufacturer's instructions. […]
For transfection assays, cells were seeded in 24-well plates at 5 × 10^4 cells well^− 1 in phenol-red free DMEM (supplemented with 10% charcoal/dextran-treated foetal bovine serum (Hyclone). After 24 h, the cells were transiently transfected with 200 ng of either pcDNA3.1(+)/cPXR or pcDNA3.1(+)/hPXR, 400 ng of reporter construct (either MMTV/luc2/pGL4 (Promega) or pGL4.24-6xPXRE) and 100 ng of pRL-TK (driving the Renilla reniformis luciferase gene as an internal control to normalise for variations in transfection efficiency) using Fugene HD transfection reagent (Promega) in serum-free medium according to the manufacturer's protocol. […] Forty-eight hours after transfection, cells were lysed and the luciferase activities of the cells were measured by a chemiluminescence assay with Dual-Luciferase Reporter Assay System (Promega) according to the manufacturer's instructions. […]

Amino acid sequences for entries named in this document (tags omitted).
UniProt A0A1P8P0E9, entry or part of it: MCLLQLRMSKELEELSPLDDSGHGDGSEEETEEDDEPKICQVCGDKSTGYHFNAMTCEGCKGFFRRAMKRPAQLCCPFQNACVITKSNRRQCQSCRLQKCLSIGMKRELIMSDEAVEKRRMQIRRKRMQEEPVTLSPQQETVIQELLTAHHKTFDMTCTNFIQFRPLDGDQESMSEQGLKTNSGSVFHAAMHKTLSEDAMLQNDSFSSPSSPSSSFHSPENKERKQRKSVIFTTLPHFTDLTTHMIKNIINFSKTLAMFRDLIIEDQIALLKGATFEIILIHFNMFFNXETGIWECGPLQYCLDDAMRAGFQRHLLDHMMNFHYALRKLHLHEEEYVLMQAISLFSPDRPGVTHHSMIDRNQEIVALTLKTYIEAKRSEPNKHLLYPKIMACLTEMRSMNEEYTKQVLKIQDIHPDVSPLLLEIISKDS

Take `Clc1ccccc1C(c1ccccc1)(c1ccccc1)n1ccnc1` [CTZ, clotrimazole]: the EC50 came to 24 nM.
To `Clc1ccc(COC(Cn2ccnc2)c2ccc(Cl)cc2Cl)c(Cl)c1` (centres unmarked) [MCZ, miconazole] belongs 315 nM.

One may read the EC50 as the concentration giving half of the maximal effect. A low value points to a more potent agent.

The record behind these values is publication PMC5484788, “Development of a common carp (Cyprinus carpio) pregnane X receptor (cPXR) transactivation reporter assay and its activation by azole fungicides and pharmaceutical chemicals” (Toxicology in Vitro, 2017).
